Measurements reported in article PMC4526467.
These are yes or no findings as the source states them, for the method shown. Binding seen in cells or lysates may run through a third protein. Binding can be weak; no strength is given.

Chains of the proteins cited; added tags and fusions are not shown. Lines headed by an entry give the natural chain unless they say otherwise; changes in a name come on top.
UniProt P18089: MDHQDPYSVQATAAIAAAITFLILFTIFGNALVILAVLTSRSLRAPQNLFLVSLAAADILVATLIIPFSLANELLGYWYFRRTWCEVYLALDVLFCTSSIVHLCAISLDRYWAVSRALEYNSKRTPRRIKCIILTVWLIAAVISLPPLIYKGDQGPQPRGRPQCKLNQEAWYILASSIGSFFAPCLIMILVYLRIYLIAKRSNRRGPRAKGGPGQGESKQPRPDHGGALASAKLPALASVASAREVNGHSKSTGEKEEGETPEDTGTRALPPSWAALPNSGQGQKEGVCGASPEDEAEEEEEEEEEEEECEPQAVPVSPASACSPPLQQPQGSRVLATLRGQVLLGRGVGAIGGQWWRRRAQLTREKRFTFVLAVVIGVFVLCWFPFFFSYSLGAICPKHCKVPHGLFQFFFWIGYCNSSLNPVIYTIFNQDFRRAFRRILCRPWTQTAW
UniProt P32121: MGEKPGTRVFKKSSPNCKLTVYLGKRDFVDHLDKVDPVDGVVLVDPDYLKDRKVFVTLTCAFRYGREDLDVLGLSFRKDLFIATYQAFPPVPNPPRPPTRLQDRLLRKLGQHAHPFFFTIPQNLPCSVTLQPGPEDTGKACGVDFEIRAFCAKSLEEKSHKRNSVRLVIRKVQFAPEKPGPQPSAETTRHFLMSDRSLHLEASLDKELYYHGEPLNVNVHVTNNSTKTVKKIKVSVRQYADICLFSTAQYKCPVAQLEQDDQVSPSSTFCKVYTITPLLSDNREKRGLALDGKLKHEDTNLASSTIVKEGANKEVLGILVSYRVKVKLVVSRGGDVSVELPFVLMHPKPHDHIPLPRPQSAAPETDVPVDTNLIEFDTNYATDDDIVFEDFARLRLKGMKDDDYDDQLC

Target: HA-tagged wild type human α2BAR (pcDNA3.1-HA-α2B) (human) (UniProt P18089)
Assay: co-IP; transfected cells co-expressing HA-tagged WT or Del301-303 α2BAR with GFP-Arr3, GFP-Arr3R170E or Myc-spinophilin, with or without 100 μM epinephrine plus 1 μM propranolol; IP with rat anti-HA antibody

Substance: GFP-tagged arrestin 3 R170E (pGFP-Arr3-R170E) (from UniProt P32121)
- binding: binds
